No constants are given. Whether binding was seen depends on the method and setting. A result given as binding can be weak or reduced; the word gives no strength.
Target: His6-sumo-kindlin
Test: pull-down

binding: binds
B1: phosphorylated p130Cas (protein, UniProt P56945 1-870)
chain: MNHLNVLAKALYDNVAESPDELSFRKGDIMTVLEQDTQGLDGWWLCSLHGRQGIVPGNRLKILVGMYDKKPAGPGPGPPATPAQPQPGLHAPAPPASQYTPMLPNTYQPQPDSVYLVPTPSKAQQGLYQVPGPSPQFQSPPAKQTSTFSKQTPHHPFPSPATDLYQVPPGPGGPAQDIYQVPPSAGMGHDIYQVPPSMDTRSWEGTKPPAKVVVPTRVGQGYVYEAAQPEQDEYDIPRHLLAPGPQDIYDVPPVRGLLPSQYGQEVYDTPPMAVKGPNGRDPLLEVYDVPPSVEKGLPPSNHHAVYDVPPSVSKDVPDGPLLREETYDVPPAFAKAKPFDPARTPLVLAAPPPDSPPAEDVYDVPPPAPDLYDVPPGLRRPGPGTLYDVPRERVLPPEVADGGVVDSGVYAVPPPAEREAPAEGKRLSASSTGSTRSSQSASSLEVAGPGREPLELEVAVEALARLQQGVSATVAHLLDLAGSAGATGSWRSPSEPQEPLVQDLQAAVAAVQSAVHELLEFARSAVGNAAHTSDRALHAKLSRQLQKMEDVHQTLVAHGQALDAGRGGSGATLEDLDRLVACSRAVPEDAKQLASFLHGNASLLFRRTKATAPGPEGGGTLHPNPTDKTSSIQSRPLPSPPKFTSQDSPDGQYENSEGGWMEDYDYVHLQGKEEFEKTQKELLEKGSITRQGKSQLELQQLKQFERLEQEVSRPIDHDLANWTPAQPLAPGRTGGLGPSDRQLLLFYLEQCEANLTTLTNAVDAFFTAVATNQPPKIFVAHSKFVILSAHKLVFIGDTLSRQAKAADVRSQVTHYSNLLCDLLRGIVATTKAAALQYPSPSAAQDMVERVKELGHSTQQFRRVLGQLAAA
modifications: phosphorylated on tyrosine to an average of ~19 sites/molecule (with Lck)
